Patent publication US7078493
No constants are given. Whether binding was seen depends on the method and setting. Some entries that bind do so weakly or less than the wild type.

Chains of the proteins cited; added tags and fusions are not shown. Residues count along the entry.
UniProt P01375, residues 77-233: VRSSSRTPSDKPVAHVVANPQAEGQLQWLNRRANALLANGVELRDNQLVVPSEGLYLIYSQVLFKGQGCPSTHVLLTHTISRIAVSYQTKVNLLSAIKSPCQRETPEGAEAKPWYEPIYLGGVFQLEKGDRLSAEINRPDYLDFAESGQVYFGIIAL

How the values were obtained:
TNF-α = TNF-α (UniProt P01375); test: ELISA (FIG. 7): purified native TR1 receptor in 96-well plate, 10 ng TNF-α added, detected with phosphatase-labeled polyclonal anti-TNF-α antibody
TNF-β = target: T1, TNF-β (UniProt P01374); test: ELISA (FIG. 7): purified native TR1 receptor in 96-well plate, 10 ng TNF-β added, detected with phosphatase-labeled polyclonal anti-TNF-β antibody
T1 sequence (looked up): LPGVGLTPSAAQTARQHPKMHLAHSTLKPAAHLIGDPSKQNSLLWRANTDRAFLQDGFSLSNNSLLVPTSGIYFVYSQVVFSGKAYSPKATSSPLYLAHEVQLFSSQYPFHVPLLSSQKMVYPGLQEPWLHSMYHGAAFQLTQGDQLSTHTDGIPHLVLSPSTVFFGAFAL

B1: native TR1 receptor (purified soluble native TR1 receptor, HSABH13 protein) (receptor)
chain: ETFPPKYLHYDEETSHQLLCDKCPPGTYLKQHCTAKWKTVCAPCPDHYYTDSWHTSDECLYCSPVCKELQYVKQECNRTHNRVCECKEGRYLEIEFCLKHRSCPPGFGVVQAGTPERNTVCKRCPDGFFSNETSSKAPCRKHTNCSVFGLLLTQKGNATHDNICSGNSESTQKCGIDVTLCEEAFFRFAVPTKFTPNWLSVLVDNLPGTKVNAESVERIKRQHSSQEQTFQLLKLWKHQNKDQDIVKKIIQDIDLCENSVQRHIGHANLTFEQLRSLMESLPGKKVGAEDIEKTIKACKPSDQILKLLSLWRIKNGDQDTLKGLMHALKHSKTYHFPKTVTQSLKKTIRFLHSFTMYKLYQKLFLEMIGNQVQSVKISCL
In the case of B1, the binding (TNF-α) is reported as “binds” and the binding (TNF-β) is reported as “binds”.
